Assay results: patent US6060516A, “N^1 -propargylhydrazines, N^2 -propargylhydrazines and their analogs for the treatment of depression, anxiety and neurodegeneration” (CV Technologies, Inc., priority 1998, dated 2000)
For at least one compound, name, drawing or mass did not settle the structure.

Tested on: serotonin uptake in rat striatal prisms
Assay: Serotonin (5-HT) uptake inhibition in rat striatal prisms in vitro
Type: biochemical
Conditions: 1 × 10^-4 M
Procedure: CVT-P040 was evaluated for the ability to inhibit serotonin uptake in rat striatal prisms using the procedure of Martin, I. L., Baker, G. B. and Mitchell, P. R. (1978), The effect of viloxazine hydrochloride on the transport of noradrenaline, dopamine, 5-hydroxytryptamine and γ-aminobutyric acid in rat brain tissue Neuropharmacology 17: 421-423. Briefly, untreated rats were killed by guillotine decapitation, their brains removed, placed on an ice-cooled plate and the striatum was dissected out from the rest of the brain. The striatum was then chopped into 0.1×0.1×2 mm prisms using a Mcllwain tissue chopper and suspended in 5 volumes incubation medium containing 123 mM sodium chloride, 5 mM potassium chloride, 2.7 mM calcium chloride, 1.2 mM magnesium sulphate, 20 mM TRIS-HCl buffer (pH 7.5), 1 mM ascorbic acid, 10 mM glucose and 12.5 μM nialamide. The suspension was stored out of direct light and buried in ice. Aliquots (1 ml) of the tissue suspension were added to flasks containing 4 ml of incubation medium and this mixture was incubated for 15 min at 37° C. in a shaking water bath. […] Filters were transferred to scintillation vials and 10 ml Ready Safe scintillation cocktail was added to each. Radioactive content per tube was counted using a liquid scintillation spectrophotometer. Percent 5-HT uptake inhibition was calculated by applying the following equation: [formula]

C#CCN(N)Cc1ccccc1 [CVT-P046, N^1 -propargylbenzylhydrazine]
% Inhibition (serotonin uptake): 48.9 ± 2.6%

C#CCN(N)c1ccccc1 [CVT-P047, N^1 -propargylphenylhydrazine]
% Inhibition (serotonin uptake): 32.5 ± 4.5%
